Data: PMC8660639
Results are given in words; binding and its absence hold for the method and conditions named. In cells and extracts the contact can be indirect. Some results given as binding are weak or reduced against the parent protein; the word gives no strength.

By UniProt entry, the sequences of proteins in these tests, tags left out.
UniProt P29590: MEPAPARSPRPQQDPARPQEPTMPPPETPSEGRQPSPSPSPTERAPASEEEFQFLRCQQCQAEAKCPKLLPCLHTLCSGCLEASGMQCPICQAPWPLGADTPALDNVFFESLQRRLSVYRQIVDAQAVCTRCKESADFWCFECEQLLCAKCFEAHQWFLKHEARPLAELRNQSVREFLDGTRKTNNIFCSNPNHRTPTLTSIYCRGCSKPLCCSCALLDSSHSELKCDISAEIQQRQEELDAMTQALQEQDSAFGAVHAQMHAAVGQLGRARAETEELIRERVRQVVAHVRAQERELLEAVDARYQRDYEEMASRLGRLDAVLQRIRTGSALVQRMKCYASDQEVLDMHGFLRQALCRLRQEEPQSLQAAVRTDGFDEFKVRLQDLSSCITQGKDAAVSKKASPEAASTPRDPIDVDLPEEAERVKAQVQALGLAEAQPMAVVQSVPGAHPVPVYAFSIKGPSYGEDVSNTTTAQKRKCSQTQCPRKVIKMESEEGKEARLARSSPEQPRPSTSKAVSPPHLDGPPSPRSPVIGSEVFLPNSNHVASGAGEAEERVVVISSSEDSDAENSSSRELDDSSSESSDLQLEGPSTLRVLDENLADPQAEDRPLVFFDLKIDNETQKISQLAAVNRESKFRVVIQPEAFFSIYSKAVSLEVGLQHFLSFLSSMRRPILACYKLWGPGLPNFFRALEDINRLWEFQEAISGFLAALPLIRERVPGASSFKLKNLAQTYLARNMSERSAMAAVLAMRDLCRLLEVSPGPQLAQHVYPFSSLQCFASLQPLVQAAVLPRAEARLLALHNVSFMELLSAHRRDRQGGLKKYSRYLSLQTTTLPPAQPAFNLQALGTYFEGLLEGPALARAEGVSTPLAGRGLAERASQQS
UniProt Q5JVF3: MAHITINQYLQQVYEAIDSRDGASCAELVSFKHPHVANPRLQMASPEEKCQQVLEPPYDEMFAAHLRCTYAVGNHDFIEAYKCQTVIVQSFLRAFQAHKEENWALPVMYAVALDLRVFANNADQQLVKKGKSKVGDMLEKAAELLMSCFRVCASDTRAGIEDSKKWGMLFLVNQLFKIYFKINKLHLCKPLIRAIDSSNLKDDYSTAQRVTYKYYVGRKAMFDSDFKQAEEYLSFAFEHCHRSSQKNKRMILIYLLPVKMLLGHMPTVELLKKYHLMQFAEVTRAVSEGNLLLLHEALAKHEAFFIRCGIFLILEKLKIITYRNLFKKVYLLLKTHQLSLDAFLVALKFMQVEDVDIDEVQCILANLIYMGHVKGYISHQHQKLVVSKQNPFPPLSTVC
UniProt P35222: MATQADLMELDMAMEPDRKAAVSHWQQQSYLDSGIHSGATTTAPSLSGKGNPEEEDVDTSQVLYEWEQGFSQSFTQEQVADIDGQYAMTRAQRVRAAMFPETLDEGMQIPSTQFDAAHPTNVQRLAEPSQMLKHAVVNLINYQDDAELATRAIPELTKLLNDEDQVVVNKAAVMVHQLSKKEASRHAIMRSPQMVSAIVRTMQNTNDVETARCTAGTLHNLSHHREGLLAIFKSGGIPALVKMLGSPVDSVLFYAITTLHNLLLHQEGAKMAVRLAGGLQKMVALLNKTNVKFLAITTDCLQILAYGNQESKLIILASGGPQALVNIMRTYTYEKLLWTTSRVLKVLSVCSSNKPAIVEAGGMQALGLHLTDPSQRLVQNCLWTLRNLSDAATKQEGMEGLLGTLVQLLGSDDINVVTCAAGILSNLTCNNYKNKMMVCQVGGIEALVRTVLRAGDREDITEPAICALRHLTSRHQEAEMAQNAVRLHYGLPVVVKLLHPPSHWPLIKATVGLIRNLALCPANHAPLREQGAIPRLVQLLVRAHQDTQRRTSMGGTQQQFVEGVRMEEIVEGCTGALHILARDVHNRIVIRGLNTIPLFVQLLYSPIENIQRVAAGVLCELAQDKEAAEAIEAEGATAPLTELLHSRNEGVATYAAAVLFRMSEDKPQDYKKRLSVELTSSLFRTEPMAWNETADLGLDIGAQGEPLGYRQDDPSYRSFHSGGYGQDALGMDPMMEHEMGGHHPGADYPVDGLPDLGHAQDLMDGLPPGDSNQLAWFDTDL

Tests used:
[1] = target: Promyelocytic leukemia protein (PML) (human (endogenous in DLD1 and HCT116)) (UniProt P29590); assay: co-IP; HCT116 and DLD1 cells transfected with pcDNA3.1 or pcDNA3.1-PCID2; CytoBuster lysate, 300 ug precleared lysate, protein G PLUS-Agarose overnight at 4 °C; IP with anti-PCID2 or anti-PML antibody, western blot
[2] = target: PCI domain containing 2 (PCID2) (human) (UniProt Q5JVF3); assay: as above
[3] = target: β-catenin (human (endogenous in DLD1 and HCT116)) (UniProt P35222); assay: co-IP; total protein of DLD1-vector, DLD1-PCID2, HCT116-shNC and HCT116-shPCID2 cells; IP with CTNNB1 antibody and protein G PLUS-Agarose overnight at 4 °C; western blot for PML

binding [1] | binding [2] | binding [3] | Substance
binds |  |  | PCI domain containing 2 (PCID2) (from UniProt Q5JVF3 1-399)
 | binds | binds | Promyelocytic leukemia protein (PML) (from UniProt P29590 1-882)
